Laboratory results published in patent US20230302150A1, “ANTIBODY-TLR AGONIST CONJUGATES, METHODS AND USES THEREOF” (Ambrx, Inc., priority 2020, published 2023).
Some results were stated once for a whole list of compounds, not compound by compound. For at least one compound, name, drawing or mass did not settle the structure.

Molecular target: T1, hTLR7 (Homo sapiens, UniProt Q9NYK1)
T1 construct: expressed in transfected cells; host or cells: HEK-Blue hTLR7 reporter cell line
T1 sequence (Q9NYK1 27-1049): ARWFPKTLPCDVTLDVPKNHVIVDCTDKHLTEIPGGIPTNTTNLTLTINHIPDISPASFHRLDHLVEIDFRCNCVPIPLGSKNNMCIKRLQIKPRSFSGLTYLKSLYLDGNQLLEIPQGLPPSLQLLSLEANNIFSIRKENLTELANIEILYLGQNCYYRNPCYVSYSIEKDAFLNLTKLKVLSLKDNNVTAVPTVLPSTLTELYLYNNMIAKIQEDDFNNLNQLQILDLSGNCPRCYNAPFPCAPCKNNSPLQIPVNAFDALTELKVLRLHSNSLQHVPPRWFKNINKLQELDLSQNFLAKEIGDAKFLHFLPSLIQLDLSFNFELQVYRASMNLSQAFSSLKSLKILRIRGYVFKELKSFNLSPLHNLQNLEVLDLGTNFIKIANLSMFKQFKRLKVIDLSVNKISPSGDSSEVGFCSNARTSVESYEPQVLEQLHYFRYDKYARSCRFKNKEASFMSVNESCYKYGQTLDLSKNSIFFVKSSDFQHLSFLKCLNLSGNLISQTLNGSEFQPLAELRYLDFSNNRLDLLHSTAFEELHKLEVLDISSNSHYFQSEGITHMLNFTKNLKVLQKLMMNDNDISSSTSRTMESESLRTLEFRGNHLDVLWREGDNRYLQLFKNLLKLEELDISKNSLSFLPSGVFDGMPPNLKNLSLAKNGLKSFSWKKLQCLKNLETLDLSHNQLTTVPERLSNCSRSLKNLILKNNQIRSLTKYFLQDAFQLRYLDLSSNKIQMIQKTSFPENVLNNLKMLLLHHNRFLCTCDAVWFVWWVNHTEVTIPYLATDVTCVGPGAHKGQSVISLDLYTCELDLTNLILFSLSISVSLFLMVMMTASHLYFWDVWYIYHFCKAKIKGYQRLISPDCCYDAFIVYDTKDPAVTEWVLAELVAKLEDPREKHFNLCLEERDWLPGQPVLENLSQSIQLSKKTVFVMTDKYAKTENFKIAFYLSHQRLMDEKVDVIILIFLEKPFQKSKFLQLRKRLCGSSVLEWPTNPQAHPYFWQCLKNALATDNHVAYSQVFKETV
Experiment: HEK-Blue hTLR7 reporter assay (NF-kB-induced SEAP, Quanti-Blue)
Assay type: cell-based
Details: text to Table 14, TLR7
Procedure: HEK-Blue™ hTLR7 cells were incubated in HEK-Blue™ Detection medium and stimulated with increasing concentrations of TLR7 or TLR8 or TLR7/8 agonists. […] The EC50 was determined from dose-response curve using Prism Software.

CCCCOc1cc2c([nH]c(=O)n2Cc2ccc(CN3CCC(CCNC(=O)c4ccc(N)cc4)CC3)cc2)c(N)n1 [AXC-905, 4-amino-N-(2-(1-(4-((4-amino-6-butoxy-2-oxo-2,3-dihydro-1H-imidazo[4,5-c]pyridin-1-yl)methyl)benzyl)piperidin-4-yl)ethyl)benzamidebenzamide]
EC50: < 10 nM
